In patent publication US20020122799A1:
Results are given in words; binding and its absence hold for the method and conditions named. Some entries that bind do so weakly or less than the wild type.

Sequences of proteins named here, by UniProt entry; tags and fusion partners are left off. A change or cut given only in a name is not applied to a line headed by its entry. A line that says so, or that is headed by a name, gives the form on record, which may keep a tag or linker.
mutant human RAGE (82S) (Q15109, form named): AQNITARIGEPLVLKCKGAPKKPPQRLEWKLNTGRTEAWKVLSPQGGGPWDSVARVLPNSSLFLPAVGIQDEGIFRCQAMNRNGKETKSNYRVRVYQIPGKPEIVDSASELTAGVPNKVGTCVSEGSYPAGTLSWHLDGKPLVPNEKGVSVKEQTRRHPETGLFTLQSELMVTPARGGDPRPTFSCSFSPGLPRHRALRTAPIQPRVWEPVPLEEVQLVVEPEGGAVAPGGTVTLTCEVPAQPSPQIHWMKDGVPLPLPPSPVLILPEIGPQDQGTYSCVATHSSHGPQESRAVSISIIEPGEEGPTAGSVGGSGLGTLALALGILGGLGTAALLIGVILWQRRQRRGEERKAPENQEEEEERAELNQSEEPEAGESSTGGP

How the values were obtained:
[1] = biological target: mutant human RAGE (82S) (human) (UniProt Q15109); test: radioligand binding to transfected CHO cells, mutant against wild-type
[2] = biological target: mutant human RAGE (82S) (human) (UniProt Q15109); test: radioligand binding to transfected CHO cells (summary in the discussion)
[3] = biological target: mutant human RAGE (82S) (human) (UniProt Q15109); test: radioligand binding to transfected CHO cells (figure legend)

Measured: binding

B1: EN-RAGE (Extracellular Novel RAGE binding protein) (ligand, bovine, UniProt P79105 2-92, looked up)
chain: TKLEDHLEGIINIFHQYSVRVGHFDTLNKRELKQLITKELPKTLQNTKDQPTIDKIFQDLDADKDGAVSFEEFVVLVSRVLKTAHIDIHKE
modifications: radiolabelled with 125-I (Iodobeads) in the radioligand binding assays
binds: all assays above
